This assay concerns the target T1, prolactin receptor on CHO-PRLR cells (human) (UniProt P16471).
T1 sequence: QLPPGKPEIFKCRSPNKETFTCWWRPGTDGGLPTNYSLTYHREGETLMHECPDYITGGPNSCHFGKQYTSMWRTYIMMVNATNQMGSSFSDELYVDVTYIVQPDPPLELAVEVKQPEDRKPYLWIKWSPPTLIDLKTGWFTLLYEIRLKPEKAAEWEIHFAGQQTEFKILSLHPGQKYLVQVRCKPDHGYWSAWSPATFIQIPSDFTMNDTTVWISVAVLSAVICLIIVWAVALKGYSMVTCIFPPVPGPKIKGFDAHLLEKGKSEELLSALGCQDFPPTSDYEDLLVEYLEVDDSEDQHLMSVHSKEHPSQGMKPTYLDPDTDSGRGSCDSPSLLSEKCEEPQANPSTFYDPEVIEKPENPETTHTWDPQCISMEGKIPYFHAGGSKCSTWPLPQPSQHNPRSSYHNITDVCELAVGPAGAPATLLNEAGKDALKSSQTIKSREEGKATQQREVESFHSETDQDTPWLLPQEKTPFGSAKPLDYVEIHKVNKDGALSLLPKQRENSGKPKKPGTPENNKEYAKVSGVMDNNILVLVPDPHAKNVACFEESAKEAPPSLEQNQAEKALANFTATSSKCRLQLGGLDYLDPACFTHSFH
Put plainly: flow cytometry on cells; competitive receptor binding: CHO-PRLR or CHO-GHR cells serum starved 8 h; fluorescent labelled PRL/GH with various concentrations of unlabelled PRL/GH, Ab2β or isotype control, 4°C, 1 h; FACS Calibur; only the binder purified. Background: A flow cytometer gives signals particle by particle.

Results are given in words; binding and its absence hold for the method and conditions named. Some entries that bind do so weakly or less than the wild type. Sequences can lack the tags named with a protein.

B1: Alexa-flour-PRL (ligand, UniProt P01236 29-227)
chain: LPICPGGAARCQVTLRDLFDRAVVLSHYIHNLSSEMFSEFDKRYTHGRGFITKAINSCHTSSLATPEDKEQAQQMNQKDFLSLIVSILRSWNEPLYHLVTEVRGMQEAPEAILSKAVEIEEQTKRLLEGMELIVSQVHPETKENEIYPVWSGLPSLQMADEESRLSAYYNLLHCLRRDSHKIDNYLKLLKCRIIHNNNC
modifications: Alexa-flour label (fluorescent labelled; site not stated)
As to B1, the binding result is on record as “binds”.

B2: prolactin (ligand, UniProt P01236 29-227)
chain: B1 chain
Take B2: the binding entry is “binds”.

B3: Prolactin antagonist (des one to nine, G129R) (ligand, UniProt P01236 38-227)
chain: RCQVTLRDLFDRAVVLSHYIHNLSSEMFSEFDKRYTHGRGFITKAINSCHTSSLATPEDKEQAQQMNQKDFLSLIVSILRSWNEPLYHLVTEVRGMQEAPEAILSKAVEIEEQTKRLLERMELIVSQVHPETKENEIYPVWSGLPSLQMADEESRLSAYYNLLHCLRRDSHKIDNYLKLLKCRIIHNNNC
Take B3: the binding result is “binds”.

Values taken from paper PMC7759028.
